Legend:
TRPM8-wt channel [1] = target: T1, TRPM8-wt channel (Mus musculus, UniProt Q8R4D5); assay: Calcium imaging (Fura-2) of HEK293 cells expressing TRPM8-wt; type: cell-based; details: cold-activated TRPM8-wt, calcium imaging (CI), this work
T1 construct: The full length cDNA encoding mouse TRPM8 (NM_134252) in pcDNA5; expressed in transfected cells; host or cells: HEK293
Description: The full length cDNA encoding mouse TRPM8 (NM_134252) in pcDNA5 (Invitrogen) was kindly provided by Dr. Ardem Patapoutian, (Scripps Research Institute, La Jolla, CA). The TRPM8-Y745H mutant was obtained by site-directed mutagenesis with the following primers: (for) 5'-[…]-3'; (rev) 5'-[…]-3', and Pfu Turbo Taq DNA Polymerase (Roche).
HEK293 cells were cultured in DMEM containing 10% of foetal bovine serum and antibiotics, and plated in 2 cm^2 wells at 400.000-500.000 cells/well. 20-24 h after plating, the cells were co-transfected with eGFP (0.3 μg/well) and TRPM8-wt or TRPM8-Y745H (2 μg/well) by incubating them with a solution containing the plasmid DNA and Lipofectamine 2000 (Invitrogen) for 5 hours. Subsequently, the cells were trypsinized and replated on poly-L-lysine-coated round coverslips (6 mm diameter). […]
Prior to experiment, HEK293 cells transfected with the TRPM8-wt/Y745H constructs were incubated with 5 μM Fura-2AM dissolved in the bath solution and 0.02% Pluronic (both from Invitrogen) for 40 min at 37°C in darkness. Fluorescence measurements were made with a Leica DM IRE2 inverted microscope fitted with a CCD camera (Imago QE Sensicam, TillPhotonics, Graefelfing, Germany). Fura-2 was excited at 340 nm and 380 nm with a Polychrome IV monochromator (Till Photonics) and the emitted fluorescence was filtered with a 510 nm longpass filter. […]

Sequences of proteins named here, by UniProt entry; tags and fusion partners are left off.
UniProt Q8R4D5, whole entry: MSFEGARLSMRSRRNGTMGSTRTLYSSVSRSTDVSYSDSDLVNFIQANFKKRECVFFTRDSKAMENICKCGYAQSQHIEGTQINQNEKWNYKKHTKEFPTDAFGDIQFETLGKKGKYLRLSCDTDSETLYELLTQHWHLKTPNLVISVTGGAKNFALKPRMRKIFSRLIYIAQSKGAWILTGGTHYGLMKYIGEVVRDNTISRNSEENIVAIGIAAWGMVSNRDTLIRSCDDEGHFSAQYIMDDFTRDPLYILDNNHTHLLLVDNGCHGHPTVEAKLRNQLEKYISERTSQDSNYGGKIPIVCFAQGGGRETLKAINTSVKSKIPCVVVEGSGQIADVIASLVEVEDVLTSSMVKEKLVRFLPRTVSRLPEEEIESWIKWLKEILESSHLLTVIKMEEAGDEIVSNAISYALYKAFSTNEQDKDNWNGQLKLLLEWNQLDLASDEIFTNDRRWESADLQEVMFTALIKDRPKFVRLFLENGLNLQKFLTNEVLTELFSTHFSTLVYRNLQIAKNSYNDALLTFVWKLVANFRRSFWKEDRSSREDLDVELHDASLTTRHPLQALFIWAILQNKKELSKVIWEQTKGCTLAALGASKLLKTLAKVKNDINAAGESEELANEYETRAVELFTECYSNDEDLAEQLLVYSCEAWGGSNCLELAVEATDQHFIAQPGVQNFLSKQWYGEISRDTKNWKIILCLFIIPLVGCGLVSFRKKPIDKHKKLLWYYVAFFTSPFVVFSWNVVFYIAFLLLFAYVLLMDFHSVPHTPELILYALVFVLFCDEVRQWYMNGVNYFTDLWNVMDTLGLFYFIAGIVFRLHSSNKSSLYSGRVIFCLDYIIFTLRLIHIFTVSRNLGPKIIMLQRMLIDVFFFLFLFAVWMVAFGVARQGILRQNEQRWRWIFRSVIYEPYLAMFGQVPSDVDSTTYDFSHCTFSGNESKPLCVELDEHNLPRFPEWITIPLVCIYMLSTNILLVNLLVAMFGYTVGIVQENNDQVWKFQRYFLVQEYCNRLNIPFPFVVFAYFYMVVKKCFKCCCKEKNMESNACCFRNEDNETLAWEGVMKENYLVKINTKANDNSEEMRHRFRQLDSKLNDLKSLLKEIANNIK

TRPM8-wt channel [2] = details: 100 μM menthol-activated TRPM8-wt, electrophysiology (EP), block estimated at +50 mV; cited from earlier work

IC50 (TRPM8-wt channel [1])	SMILES	IC50 (TRPM8-wt channel [2])
8000 ± 1000 nM	Clc1ccccc1C(c1ccccc1)(c1ccccc1)n1ccnc1 [Clotrimazole, 1-[(2-chlorophenyl)diphenylmethyl]-1H-imidazole]	1200 nM
420 ± 70 nM	Clc1ccc(COC(Cn2ccnc2)c2ccc(Cl)cc2Cl)cc1 (stereo not drawn) [Econazole, 1-[2-[(4-chlorophenyl)methoxy]-2-(2,4-dichlorophenyl)ethyl]-1H-imidazole]	

Reference: PMC2778643, “Differential role of the menthol-binding residue Y745 in the antagonism of thermally gated TRPM8 channels” (Molecular Pain, 2009)
